Source: PubChem BioAssay AID624297 (National Center for Advancing Translational Sciences (NCATS), 2012)
Several values for one entry are separate records, joined by “and”; a condition that tells them apart may be missing. Equal entries are not always repeated. In all, about 340,000 compounds went through this assay and about 6,200 (1.8%) were called active. The shares of active, inactive and inconclusive entries below differ from those in the screen. Calls follow the shape of the dose curve; as a rule, active = well fitted activation curve with a large enough effect; inconclusive = small, poorly fitted or top-dose-only effect; inactive = no such curve, though single readings can be large or run the other way. A potency beside an inconclusive call is a rough fit, not a confirmed value.

assay: A quantitative high throughput screen for small molecules that induce DNA re-replication in SW480 colon adenocarcinoma cells.; also: nearly all actives have a fitted effect of over 55% in size; conditions: Hoechst DNA content imaging, 48 h; series mostly up to 46.1 µM
Text: H Molecular Libraries Probe Production Network [MLPCN] NIH Chemical Genomics Center [NCGC] MLPCN Grant: Fast Track K99 CA136555 Assay Provider: Melvin DePamphilis, NICHD, NIH Assay Overview Eukaryotic cells normally restrict genome duplication to once per cell division. When this process is aberrant, DNA re-replication occurs when cells reinitiate DNA replication before the first round of replication is complete. DNA re-replication induces the DNA damage response, arrests cell proliferation, and triggers apoptosis. The cell cycle components cyclin A, Cdt-1, Cdc6 and geminin are critical regulators of this process and their misregulation results in DNA re-replication in normal and cancer cells. To identify compounds that induce re-replication in normal cells, an image-based assay was used to measure DNA content of nuclei, as detected by the fluorescent DNA binding dye, Hoechst. Cell nuclei were imaged by a fluorescence scanning plate imager and compounds that induce DNA re-replication were identified by the increase of nuclei with elevated fluorescence intensity
For screening, 250 cells in 5 uL/well were dispensed into black clear 1536-well plates (Aurora) using a solenoid-based dispenser. Following transfer of 23 nL compound or DMSO vehicle by a pin tool, the plates were incubated 48 hr at 37 C and 5% CO2. After addition of 1 uL/well Hoescht stain, the plates were incubated 40 min at 37 C, 5% CO2 and total intensity of fluorescent objects (nuclei) were enumerated by an Acumen Explorer Ex3 (TTP LabTech) fluorescence scanning plate imager (405 nm excitation, 500-530 nm emission). Keywords: NIH Roadmap, MLPCN, MLI, MLSMR, qHTS, NCGC, DNA replication, cancer
Potency is read from the fitted curve at half-maximal effect.

SMILES	Potency
CC1(CCl)CN1S(=O)(=O)c1ccccc1 (stereo not drawn)	inconclusive: 14.6 µM [activator, single point]
O=c1c2ccccc2nc(-c2ccccc2)n1-n1cccc1	inactive
COc1cccc(C(=O)C2CCCN(Cc3ccccn3)C2)c1 (stereo not drawn)	inactive
Cc1[nH]c2ccccc2c1CCNCc1ccco1	inconclusive: 32.6 µM [activator, single point]
N[C@@H](Cc1ccc(N(CCCl)CCCl)cc1)C(=O)O	inconclusive: 2.99 µM [activator, full curve] and inconclusive: 5.17 µM [activator, full curve]
NC(=O)c1ccc(N)nc1	inconclusive: 5.8 µM [activator, full curve]
CCOc1cc(C=C2C(=O)NC(=O)NC2=O)ccc1OS(=O)(=O)c1ccccc1	inconclusive: 18.4 µM [activator, partial curve, poor fit]
COc1ccccc1OCC#CCN1CCOCC1	inconclusive: 29.1 µM [activator, single point]
O=c1[nH]c(=O)n(-c2ccccc2F)c(O)c1C=NCCC1=CCCCC1	inactive
COC(=O)C1=C(c2ccc(F)cc2OCc2ccccc2)C[C@@H]2CC[C@H]1N2C(=O)NCCO	inactive
COc1ccc(CN2Cc3cnnn3-c3ccccc3C2C)cc1 (stereo not drawn)	inconclusive: 18.4 µM [activator, single point]
COc1ccc(C(CNC(=O)Cc2ccc(Cl)c(Cl)c2)N2CCCCC2)cc1 (stereo not drawn)	inactive
COc1ccc(C=C(C#N)c2ccc(OC)cc2)cc1	inconclusive: 23.1 µM [activator, single point]
COc1cc2c(cc1OC)-c1c(OC)c(OC)c(OC)c3ccnc(c13)C2=O	active: 8.2 µM
Cc1[nH]c2ccccc2c1CCCNC1CCCCC1	inconclusive: 23.1 µM [activator, single point]
O=C1NC(=O)C(CCc2ccncc2)(Cc2cccc(Cl)c2Cl)C(=O)N1c1ccc(Br)cc1 (stereo not drawn)	active: 11.6 µM
CCC1(C)CC(CCNCc2ccc(N(C)C)cc2)(c2ccc(F)cc2)CCO1 (stereo not drawn)	active: 18.4 µM
CCC(=O)CC(c1ccccc1)c1c(O)c2ccccc2sc1=O (stereo not drawn)	inconclusive: 14.6 µM [activator, single point]
COC(=O)C1=C(c2ccc(OC)c(OC)c2)C[C@@H]2CC[C@H]1N2C(=O)NCCOc1ccc(OC)cc1	inconclusive: 3.26 µM [activator, single point]
C1=CC2C3C=CC(C3)C2C1 (stereo not drawn)	inconclusive: 0.651 µM [activator, single point]
CCc1ccc(CNCCc2ccc(F)cc2)cc1	inconclusive: 29.1 µM [activator, single point]
CCN1CCN(c2ccc([N+](=O)[O-])cc2C(=O)OC)CC1	inconclusive: 13 µM [activator, partial curve, poor fit]
CCCCC(=O)N/N=C/c1c(O)n(Cc2ccc(F)cc2)c(=O)[nH]c1=O	inconclusive: 29.1 µM [activator, single point]

Among those listed so far, these contain a halogen.
SMILES	Potency
CC1(CCl)CN1S(=O)(=O)c1ccccc1 (stereo not drawn)	inconclusive: 14.6 µM [activator, single point]
N[C@@H](Cc1ccc(N(CCCl)CCCl)cc1)C(=O)O	inconclusive: 2.99 µM [activator, full curve] and inconclusive: 5.17 µM [activator, full curve]
O=c1[nH]c(=O)n(-c2ccccc2F)c(O)c1C=NCCC1=CCCCC1	inactive
COC(=O)C1=C(c2ccc(F)cc2OCc2ccccc2)C[C@@H]2CC[C@H]1N2C(=O)NCCO	inactive
COc1ccc(C(CNC(=O)Cc2ccc(Cl)c(Cl)c2)N2CCCCC2)cc1 (stereo not drawn)	inactive
O=C1NC(=O)C(CCc2ccncc2)(Cc2cccc(Cl)c2Cl)C(=O)N1c1ccc(Br)cc1 (stereo not drawn)	active: 11.6 µM
CCC1(C)CC(CCNCc2ccc(N(C)C)cc2)(c2ccc(F)cc2)CCO1 (stereo not drawn)	active: 18.4 µM
CCc1ccc(CNCCc2ccc(F)cc2)cc1	inconclusive: 29.1 µM [activator, single point]
CCCCC(=O)N/N=C/c1c(O)n(Cc2ccc(F)cc2)c(=O)[nH]c1=O	inconclusive: 29.1 µM [activator, single point]

Later entries

SMILES	Potency
Cc1c(C(=O)N2CCC3(CC2)OCCO3)oc2ccc(S(=O)(=O)N3CCCCC3)cc12	inactive
O=C(N/N=C/c1c(O)n(CCC2=CCCCC2)c(=O)[nH]c1=O)c1ccccc1	inconclusive: 29.1 µM [activator, single point]
O=C1NC(=O)C(=Cc2c(Cl)cccc2Cl)C(=O)N1	inconclusive: 18.4 µM [activator, single point]
C/C(=N\Nc1ccccc1)c1c(O)n(Cc2ccccc2)c(=O)[nH]c1=O	inactive
CCC1=Nc2cc(C(=O)N3CCC4(CC3)OCCO4)ccc2Sc2ccc(Br)cc21	inconclusive: 14.6 µM [activator, single point]
Cc1cc(=O)oc2c(C)c(OCC(=O)N3CCN(Cc4ccccc4)CC3)ccc12	inconclusive: 5.8 µM [activator, single point]
CN(C)C(Cc1ccccc1)C(=O)c1ccc(-c2ccccc2)cc1 (stereo not drawn)	inconclusive: 20.6 µM [activator, single point]
O=C(CCN1CCN(CCO)CC1)N1c2ccccc2Sc2ccc(C(F)(F)F)cc21	inactive
CC(C)=CCc1c(O)cc2c(c1O)C(=O)CC(c1ccc(O)cc1)O2 (stereo not drawn)	inactive
CC12CCC3c4ccc(OC(=O)N(CCCl)CCCl)cc4CCC3C1CCC2O (stereo not drawn)	inconclusive: 23.1 µM [activator, single point]
CCc1ccc(N2C(=O)NC(=O)/C(=C\C=C\c3ccco3)C2=O)cc1	active: 18.4 µM
O=C1C=C2C=C[C@@H]3CC2(O1)[C@H]1CCCCN31	inactive
CSc1nc(C)c(Br)c(N2CC2)n1	inconclusive: 20.6 µM [activator, partial curve, poor fit]
O=c1cccc2n1CC1CC2CN(S(=O)(=O)c2cc(Cl)ccc2Cl)C1 (stereo not drawn)	inactive
CC1OC(OC2C=C3CCC4C(CCC5(C)C(c6ccc(=O)oc6)CCC45O)C3(C)CC2)C(O)C(OC2OC(CO)C(O)C(O)C2O)C1O (stereo not drawn)	inconclusive: 0.0366 µM [activator, full curve, poor fit]
Clc1cccc(CNCCc2c[nH]c3ccccc23)c1	inconclusive: 29.1 µM [activator, partial curve, poor fit]
Cc1cc(S(=O)(=O)NCC(C)C)ccc1OCC(=O)N1CCN(Cc2ccccc2)CC1	inconclusive: 7.31 µM [activator, partial curve, poor fit]
O=C1NC(=O)C(=Cc2cc(Cl)ccc2OCc2ccc(C(=O)O)cc2)C(=O)N1	inconclusive: 14.6 µM [activator, single point]
CCC1=C(C)C(N2CCOCC2)=NP(N2CCOCC2)(N2CCOCC2)=N1	inactive
CCN(CC)P(=S)(c1c(C)nc2ccccn12)c1c(C)nc2ccccn12	active: 10.3 µM
CCOC(=O)C(O)(c1ccc(NC(=S)NC(=O)c2ccc(Cl)cc2Cl)cc1)C(F)(F)F (stereo not drawn)	inconclusive: 23.1 µM [activator, single point]
CCn1c(P(C)(=O)O)nc2ccccc21	inactive
CC(C)n1c(O)c(C2c3cc(Cl)ccc3Oc3[nH]c(=O)n(C(C)C)c(=O)c32)c(=O)[nH]c1=O (stereo not drawn)	inconclusive: 29.1 µM [activator, single point]

SMILES	Potency
O=C(Cc1ccc(S(=O)(=O)N2CCCC2)s1)N1CCN(c2ccc(F)cc2)CC1	inconclusive: 20.6 µM [activator, single point]
CC(C)C(NC(=O)C(C(C)C)N(C)C)C(=O)N(C)C(C(=O)N1CCCC1C(=O)N1CCCC1C(=O)NCc1ccccc1)C(C)C (stereo not drawn)	inconclusive: 0.291 µM [activator, full curve, poor fit]
COC(=O)C1=C(c2ccccc2)C[C@@H]2CC[C@H]1N2C(=O)N1CCC(C)CC1	inactive
C=CCn1c(O)c(C(C)=NC2CCN(Cc3ccccc3)CC2)c(=O)[nH]c1=O	inactive
CCOc1cc2c(cc1OCC)-n1cccc1C(c1cc(C)c(OC)cc1C)NC2 (stereo not drawn)	inconclusive: 29.1 µM [activator, single point]
CC1=C(O)C(=O)C=C2C1=CC=C1C2(C)CCC2(C)C3CC(C)(C(=O)O)CCC3(C)CCC12C (stereo not drawn)	inconclusive: 10.3 µM [activator, partial curve, poor fit]
COCCCn1c(N)c(C(=O)Nc2ccccc2)c2nc3ccccc3nc21	active: 20.6 µM
Nc1c(C(=O)OC2CCCCC2)c2nc3ccccc3nc2n1CC1CCCO1 (stereo not drawn)	inconclusive: 16.4 µM [activator, single point]
CCCCCn1c(N)c(C(=O)NCc2cccs2)c2nc3ccccc3nc21	active: 2.59 µM
O=[N+]([O-])c1ccccc1-c1cc(-c2ccccc2)cc(-c2ccccc2)[n+]1Cc1ccccc1Cl	inconclusive: 3.66 µM [activator, full curve, poor fit]
O=[N+]([O-])c1ccc(Sc2nc3ccccc3o2)c([N+](=O)[O-])c1	active: 4.11 µM
CC(C)Oc1cccc(NC(=O)c2cccn(Cc3ccc4c(c3)OC(F)(F)O4)c2=O)c1	inconclusive: 29.1 µM [activator, single point]
CC(C)COP(=O)(c1ccc(N(C)C)cc1)C(Nc1ccccc1)c1ccccc1 (stereo not drawn)	inconclusive: 32.6 µM [activator, partial curve, poor fit]
Cc1nonc1OCCNc1ccc([N+](=O)[O-])c2cccnc12	active: 0.517 µM
CN1CN(c2cccc([N+](=O)[O-])c2)CN=C1N[N+](=O)[O-]	inconclusive: 29.1 µM [activator, single point]
O=c1[nH]c(=S)[nH]c(O)c1N=Nc1cc2c(cc1[N+](=O)[O-])OCO2	inconclusive: 4.11 µM [activator, single point]
COC(=O)C1=C(c2ccc(-c3ccccc3)c(F)c2)C[C@@H]2CC[C@H]1N2C(=O)NCc1ccc(F)cc1	inconclusive: 23.1 µM [activator, single point]
C#CC1(O)CCC2C3CCC4=CC(=O)CCC4(C)C3CCC21C (stereo not drawn)	inactive
C=CCc1cc(C=C2C(=O)NC(=O)NC2=O)cc(OC)c1OCc1ccc(C(=O)O)cc1	inactive
O=P(Nc1cccc(Cl)c1)(Oc1ccccc1)Oc1ccccc1	inconclusive: 18.4 µM [activator, partial curve, poor fit]
N#CC(c1ccccc1)c1cccc(Cl)n1 (stereo not drawn)	inconclusive: 0.92 µM [activator, full curve, poor fit]
CCOC(=O)c1cc(CC)sc1/N=C/C1C(=O)NC(=S)NC1=O	inactive

Quoted from the listing:
Value of CCCCCn1c(N)c(C(=O)NCc2cccs2)c2nc3ccccc3nc21 under Potency: active: 2.59 µM
Value of O=[N+]([O-])c1ccccc1-c1cc(-c2ccccc2)cc(-c2ccccc2)[n+]1Cc1ccccc1Cl under Potency: inconclusive: 3.66 µM [activator, full curve, poor fit]
